# Measurements taken from patent US9518979B2, “Assay to evaluate drug metabolism” (priority 2015, dated 2016).
# Test system: cryopreserved human hepatocytes
# Conditions: each incubation a 24 hour period; single donors or pooled donors; FIGS. 4 and 5
compound,measurement,value
CN1C(=O)CN=C(c2ccccc2)c2cc(Cl)ccc21 [diazepam],percent parent compound remaining versus incubation time,time dependent disappearance
